# These are yes or no findings as the source states them, for the method shown. In cells and extracts the contact can be indirect. Some binding calls cover weakened binding; strength is not graded here.
# Amino acid sequences for entries named in this document (tags omitted).
# UniProt Q13620, whole entry: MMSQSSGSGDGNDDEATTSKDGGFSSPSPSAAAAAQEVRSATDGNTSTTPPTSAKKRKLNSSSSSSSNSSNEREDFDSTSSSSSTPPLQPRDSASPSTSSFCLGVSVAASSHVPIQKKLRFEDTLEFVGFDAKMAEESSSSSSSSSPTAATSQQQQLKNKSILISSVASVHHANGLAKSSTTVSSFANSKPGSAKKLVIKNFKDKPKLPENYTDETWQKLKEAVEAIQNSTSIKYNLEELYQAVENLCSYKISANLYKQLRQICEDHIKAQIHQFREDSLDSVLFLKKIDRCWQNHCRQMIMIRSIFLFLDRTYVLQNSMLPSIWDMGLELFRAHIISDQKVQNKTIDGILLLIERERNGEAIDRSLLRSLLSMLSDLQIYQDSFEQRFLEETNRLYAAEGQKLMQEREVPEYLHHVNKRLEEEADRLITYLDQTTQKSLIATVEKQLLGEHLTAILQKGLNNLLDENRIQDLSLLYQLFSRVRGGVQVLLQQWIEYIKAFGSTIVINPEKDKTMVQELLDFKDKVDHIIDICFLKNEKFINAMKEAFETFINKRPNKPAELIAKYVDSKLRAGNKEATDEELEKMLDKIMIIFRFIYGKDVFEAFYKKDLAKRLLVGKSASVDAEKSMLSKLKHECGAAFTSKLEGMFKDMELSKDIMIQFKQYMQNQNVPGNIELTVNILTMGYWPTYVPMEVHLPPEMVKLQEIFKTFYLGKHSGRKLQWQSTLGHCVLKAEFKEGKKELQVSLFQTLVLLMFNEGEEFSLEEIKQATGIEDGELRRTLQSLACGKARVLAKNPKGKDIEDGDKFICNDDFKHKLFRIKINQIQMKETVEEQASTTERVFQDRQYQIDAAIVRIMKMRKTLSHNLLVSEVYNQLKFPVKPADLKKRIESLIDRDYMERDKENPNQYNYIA
# UniProt Q9Y297, whole entry: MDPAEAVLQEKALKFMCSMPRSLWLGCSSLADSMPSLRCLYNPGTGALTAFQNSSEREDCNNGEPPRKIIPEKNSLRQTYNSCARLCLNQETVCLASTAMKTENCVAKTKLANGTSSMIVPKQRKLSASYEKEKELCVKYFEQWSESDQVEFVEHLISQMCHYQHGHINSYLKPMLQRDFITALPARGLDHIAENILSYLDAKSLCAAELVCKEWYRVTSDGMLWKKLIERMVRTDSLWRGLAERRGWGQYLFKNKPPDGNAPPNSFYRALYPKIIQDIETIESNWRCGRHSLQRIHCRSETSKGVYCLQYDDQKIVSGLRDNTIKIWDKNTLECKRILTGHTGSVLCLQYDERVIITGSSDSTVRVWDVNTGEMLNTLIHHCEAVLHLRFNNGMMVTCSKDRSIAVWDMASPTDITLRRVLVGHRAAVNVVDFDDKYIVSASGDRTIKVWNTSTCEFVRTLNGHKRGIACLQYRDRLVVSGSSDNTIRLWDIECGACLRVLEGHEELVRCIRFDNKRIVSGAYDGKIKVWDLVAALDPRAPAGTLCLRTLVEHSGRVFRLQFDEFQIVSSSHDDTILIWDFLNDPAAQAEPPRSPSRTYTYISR
# UniProt Q14999, whole entry: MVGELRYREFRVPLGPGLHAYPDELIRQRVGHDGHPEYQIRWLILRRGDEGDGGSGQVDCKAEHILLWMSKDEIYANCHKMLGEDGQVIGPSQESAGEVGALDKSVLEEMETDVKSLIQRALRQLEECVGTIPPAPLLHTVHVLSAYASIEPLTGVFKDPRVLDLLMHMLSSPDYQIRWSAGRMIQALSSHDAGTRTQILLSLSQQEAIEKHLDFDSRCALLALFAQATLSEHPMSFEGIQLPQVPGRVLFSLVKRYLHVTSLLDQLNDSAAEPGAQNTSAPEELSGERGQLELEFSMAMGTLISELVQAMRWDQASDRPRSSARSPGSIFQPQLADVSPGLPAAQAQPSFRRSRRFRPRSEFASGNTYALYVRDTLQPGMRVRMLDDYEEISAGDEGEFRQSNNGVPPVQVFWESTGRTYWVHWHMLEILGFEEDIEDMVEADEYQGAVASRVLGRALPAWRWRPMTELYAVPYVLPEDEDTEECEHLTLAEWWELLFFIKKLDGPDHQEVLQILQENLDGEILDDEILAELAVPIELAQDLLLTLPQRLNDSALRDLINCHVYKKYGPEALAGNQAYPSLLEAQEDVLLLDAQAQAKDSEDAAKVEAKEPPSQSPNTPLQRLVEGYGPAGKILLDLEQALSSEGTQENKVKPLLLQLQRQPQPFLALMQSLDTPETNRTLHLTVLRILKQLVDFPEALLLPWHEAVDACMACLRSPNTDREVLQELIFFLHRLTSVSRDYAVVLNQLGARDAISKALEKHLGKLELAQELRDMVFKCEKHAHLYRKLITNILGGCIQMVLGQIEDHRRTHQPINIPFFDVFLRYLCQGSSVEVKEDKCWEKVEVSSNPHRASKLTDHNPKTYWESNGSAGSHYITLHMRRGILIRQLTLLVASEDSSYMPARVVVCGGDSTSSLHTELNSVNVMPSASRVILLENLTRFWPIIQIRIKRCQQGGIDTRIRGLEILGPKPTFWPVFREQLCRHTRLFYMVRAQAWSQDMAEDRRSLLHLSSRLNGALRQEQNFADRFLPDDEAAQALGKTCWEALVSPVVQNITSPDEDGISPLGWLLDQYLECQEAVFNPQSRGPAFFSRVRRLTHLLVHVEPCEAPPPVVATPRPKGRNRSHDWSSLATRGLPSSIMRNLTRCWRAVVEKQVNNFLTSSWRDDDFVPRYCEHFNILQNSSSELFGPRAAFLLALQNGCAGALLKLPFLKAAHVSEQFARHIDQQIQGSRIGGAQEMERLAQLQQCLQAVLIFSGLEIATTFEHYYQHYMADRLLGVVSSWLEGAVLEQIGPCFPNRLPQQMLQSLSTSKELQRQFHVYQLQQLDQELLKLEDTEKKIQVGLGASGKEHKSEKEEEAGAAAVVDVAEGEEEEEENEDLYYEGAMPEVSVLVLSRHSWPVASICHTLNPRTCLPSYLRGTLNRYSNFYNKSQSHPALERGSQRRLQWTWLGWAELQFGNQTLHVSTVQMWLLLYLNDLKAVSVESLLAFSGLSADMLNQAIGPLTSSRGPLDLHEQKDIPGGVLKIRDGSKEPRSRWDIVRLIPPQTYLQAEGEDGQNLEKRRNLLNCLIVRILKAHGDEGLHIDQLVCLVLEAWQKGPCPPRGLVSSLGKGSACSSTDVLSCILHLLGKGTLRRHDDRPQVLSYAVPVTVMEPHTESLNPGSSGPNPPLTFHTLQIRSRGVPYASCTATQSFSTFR
# UniProt Q9UKB1, whole entry: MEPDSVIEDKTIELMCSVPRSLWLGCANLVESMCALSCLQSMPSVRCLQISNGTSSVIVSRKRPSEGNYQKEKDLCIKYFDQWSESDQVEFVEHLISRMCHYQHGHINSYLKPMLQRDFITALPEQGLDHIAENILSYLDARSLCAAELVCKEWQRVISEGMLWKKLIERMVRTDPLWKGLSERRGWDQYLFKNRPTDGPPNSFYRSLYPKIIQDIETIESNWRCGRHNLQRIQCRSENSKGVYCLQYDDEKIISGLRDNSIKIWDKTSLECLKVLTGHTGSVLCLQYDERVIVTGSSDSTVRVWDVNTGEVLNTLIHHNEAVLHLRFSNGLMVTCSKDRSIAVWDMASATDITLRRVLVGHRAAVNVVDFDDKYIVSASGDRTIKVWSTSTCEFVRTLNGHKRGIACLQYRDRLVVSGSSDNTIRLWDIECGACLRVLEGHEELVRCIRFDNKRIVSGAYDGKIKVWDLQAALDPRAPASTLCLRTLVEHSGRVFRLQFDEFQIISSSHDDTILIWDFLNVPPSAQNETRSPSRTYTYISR
# UniProt Q13619, whole entry: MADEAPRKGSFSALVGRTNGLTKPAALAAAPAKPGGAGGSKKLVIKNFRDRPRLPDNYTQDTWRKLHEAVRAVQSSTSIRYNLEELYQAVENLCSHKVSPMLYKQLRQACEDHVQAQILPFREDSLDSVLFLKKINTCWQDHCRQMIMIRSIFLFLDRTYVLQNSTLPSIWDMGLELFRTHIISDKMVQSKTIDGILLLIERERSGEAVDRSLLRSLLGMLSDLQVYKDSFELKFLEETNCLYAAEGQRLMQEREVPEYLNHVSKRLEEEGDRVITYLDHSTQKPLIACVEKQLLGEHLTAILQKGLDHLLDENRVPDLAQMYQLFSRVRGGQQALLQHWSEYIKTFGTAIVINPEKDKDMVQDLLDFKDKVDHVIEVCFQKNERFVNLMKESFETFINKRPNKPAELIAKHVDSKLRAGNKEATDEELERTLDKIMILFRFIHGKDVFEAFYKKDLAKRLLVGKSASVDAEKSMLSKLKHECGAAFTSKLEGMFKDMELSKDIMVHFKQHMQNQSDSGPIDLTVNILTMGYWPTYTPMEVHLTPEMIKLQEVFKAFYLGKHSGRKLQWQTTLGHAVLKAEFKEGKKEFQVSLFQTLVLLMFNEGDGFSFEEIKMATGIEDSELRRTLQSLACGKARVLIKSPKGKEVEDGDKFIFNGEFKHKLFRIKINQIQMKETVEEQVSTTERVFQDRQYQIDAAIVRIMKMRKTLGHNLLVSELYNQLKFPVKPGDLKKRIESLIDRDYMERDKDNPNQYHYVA
# UniProt P19525, whole entry: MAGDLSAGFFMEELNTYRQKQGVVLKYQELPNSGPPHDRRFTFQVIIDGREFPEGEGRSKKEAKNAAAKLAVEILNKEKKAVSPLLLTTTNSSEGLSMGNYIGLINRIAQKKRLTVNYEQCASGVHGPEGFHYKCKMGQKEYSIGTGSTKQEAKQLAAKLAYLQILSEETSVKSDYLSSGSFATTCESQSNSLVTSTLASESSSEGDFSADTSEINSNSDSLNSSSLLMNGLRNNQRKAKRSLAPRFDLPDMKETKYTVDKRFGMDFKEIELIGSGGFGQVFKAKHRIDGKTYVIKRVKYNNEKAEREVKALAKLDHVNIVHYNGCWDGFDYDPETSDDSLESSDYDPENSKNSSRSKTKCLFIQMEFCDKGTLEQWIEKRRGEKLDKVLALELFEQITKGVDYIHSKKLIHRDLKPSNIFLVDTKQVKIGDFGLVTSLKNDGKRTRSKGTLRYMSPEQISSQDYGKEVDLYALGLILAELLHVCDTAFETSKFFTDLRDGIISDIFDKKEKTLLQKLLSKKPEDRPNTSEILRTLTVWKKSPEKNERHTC
# Experiments:
# Experiment in all cases: co-IP
# [1] = target: NSs protein of Rift Valley fever virus with a C-terminal V5 tag, expressed from recombinant MP-12 virus (rMP-12-NSs-V5) (Rift Valley fever virus, strain MP-12) (UniProt P21698)
# [2] = target: myc-tagged CUL3 (pcDNA3-myc3-CUL3) (UniProt Q13618)
# [3] = target: myc-tagged CUL4B (pcDNA3-myc3-CUL4B) (UniProt Q13620)
# [4] = target: HA-tagged CUL9 (HA2-PARC/CUL9) (UniProt Q8IWT3)
# [5] = target: Flag-tagged wildtype BTRC (pcDNA3-Flag-BTRC-Wt) (UniProt Q9Y297)
# [6] = target: myc-tagged CUL7 (pcDNA3-myc3-CUL7) (UniProt Q14999)
# [7] = target: Flag-tagged wildtype FBXW11 (pcDNA3-Flag-FBXW11-Wt) (UniProt Q9UKB1)
# [8] = target: myc-tagged CUL4A (pcDNA3-myc3-CUL4A) (UniProt Q13619)
Substance,binding [1],binding [2],binding [3],binding [4],binding [5],binding [6],binding [7],binding [8]
double-stranded (ds) RNA-dependent protein kinase (PKR or EIF2AK2) (from UniProt P19525 1-551),binds,,,,,,,
"NSs protein of Rift Valley fever virus with a C-terminal V5 tag, expressed from recombinant MP-12 virus (rMP-12-NSs-V5) (from UniProt P21698 1-265)",,no binding,no binding,no binding,binds,no binding,binds,no binding
HA-tagged FBXW11 (pcDNA3-HA-FBXW11) (from UniProt Q9UKB1 1-542),binds,,,,,,,

# Reference: PMC4737497
